Some of the results follow.
Key:
Assay in all cases: log2 fold change, soluble protein after heating vs DMSO (PISA); higher = thermal stabilisation; K562 lysate, 10 uM; active = over 0.2 and 3.5 SD of the protein, either way, in both replicates (recomputed)
nilotinib = compound: Cc1cn(-c2cc(NC(=O)c3ccc(C)c(Nc4nccc(-c5cccnc5)n4)c3)cc(C(F)(F)F)c2)cn1 [nilotinib]
Procedure, shortened: (§1)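 Quantification was by TMTpro 16plex LC-MS/MS with equalised channel sums, applied to the supernatant after 21,000xg for 90 min. Samples were crude K562 extract at 1 mg/mL protein in PBS pH 7.4 with 1 mM MgCl2, treated with 10 μM compound for 30 min, heated for 3 min across 48°C-58°C, pooled and brought to 0.5% NP-40 at 4°C. Values are log-two fold changes in thermal stability relative to solvent controls, from duplicates.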

Chains of the proteins cited; added tags and fusions are not shown. Lines headed by an entry give the natural chain unless they say otherwise; changes in a name come on top.
UniProt Q9H269: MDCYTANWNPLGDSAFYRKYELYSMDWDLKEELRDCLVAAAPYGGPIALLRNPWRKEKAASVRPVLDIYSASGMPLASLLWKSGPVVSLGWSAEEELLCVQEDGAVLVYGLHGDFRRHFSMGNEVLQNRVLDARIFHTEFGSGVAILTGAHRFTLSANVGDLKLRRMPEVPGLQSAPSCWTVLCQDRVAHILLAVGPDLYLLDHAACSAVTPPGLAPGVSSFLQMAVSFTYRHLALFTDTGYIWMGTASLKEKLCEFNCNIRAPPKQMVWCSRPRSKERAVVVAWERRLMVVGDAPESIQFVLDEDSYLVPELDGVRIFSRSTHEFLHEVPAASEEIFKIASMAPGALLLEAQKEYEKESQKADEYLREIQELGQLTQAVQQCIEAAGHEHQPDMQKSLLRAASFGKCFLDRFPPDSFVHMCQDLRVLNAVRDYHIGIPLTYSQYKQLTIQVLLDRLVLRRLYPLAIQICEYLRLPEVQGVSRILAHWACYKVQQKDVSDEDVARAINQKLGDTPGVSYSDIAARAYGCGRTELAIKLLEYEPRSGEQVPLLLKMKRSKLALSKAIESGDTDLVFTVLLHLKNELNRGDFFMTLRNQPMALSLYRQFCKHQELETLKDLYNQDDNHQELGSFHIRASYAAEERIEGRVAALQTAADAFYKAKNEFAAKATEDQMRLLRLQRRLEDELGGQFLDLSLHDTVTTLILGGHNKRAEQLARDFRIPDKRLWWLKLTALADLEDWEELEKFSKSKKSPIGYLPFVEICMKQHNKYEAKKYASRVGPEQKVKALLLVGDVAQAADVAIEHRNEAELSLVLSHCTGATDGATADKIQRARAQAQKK
UniProt P57081: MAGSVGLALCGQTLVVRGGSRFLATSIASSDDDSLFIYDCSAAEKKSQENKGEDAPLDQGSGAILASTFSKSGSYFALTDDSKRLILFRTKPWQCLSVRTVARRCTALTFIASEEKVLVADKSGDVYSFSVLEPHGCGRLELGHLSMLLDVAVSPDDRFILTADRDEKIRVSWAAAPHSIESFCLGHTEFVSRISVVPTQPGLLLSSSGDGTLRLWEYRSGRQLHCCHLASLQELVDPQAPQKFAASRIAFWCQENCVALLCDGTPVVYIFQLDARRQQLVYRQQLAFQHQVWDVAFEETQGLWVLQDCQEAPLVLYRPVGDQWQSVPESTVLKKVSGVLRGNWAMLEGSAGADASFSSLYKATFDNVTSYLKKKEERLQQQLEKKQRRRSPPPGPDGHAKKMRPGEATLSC
UniProt Q9UGM6: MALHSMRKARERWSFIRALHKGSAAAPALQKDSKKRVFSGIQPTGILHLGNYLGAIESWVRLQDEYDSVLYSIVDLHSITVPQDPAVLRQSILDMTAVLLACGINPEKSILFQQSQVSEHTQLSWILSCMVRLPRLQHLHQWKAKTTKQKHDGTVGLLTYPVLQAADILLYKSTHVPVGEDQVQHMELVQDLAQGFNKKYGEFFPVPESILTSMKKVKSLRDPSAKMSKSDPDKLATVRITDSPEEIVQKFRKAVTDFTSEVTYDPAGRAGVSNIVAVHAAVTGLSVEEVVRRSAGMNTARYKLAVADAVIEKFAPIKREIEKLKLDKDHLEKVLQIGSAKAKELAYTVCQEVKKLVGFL
UniProt Q9HCS7: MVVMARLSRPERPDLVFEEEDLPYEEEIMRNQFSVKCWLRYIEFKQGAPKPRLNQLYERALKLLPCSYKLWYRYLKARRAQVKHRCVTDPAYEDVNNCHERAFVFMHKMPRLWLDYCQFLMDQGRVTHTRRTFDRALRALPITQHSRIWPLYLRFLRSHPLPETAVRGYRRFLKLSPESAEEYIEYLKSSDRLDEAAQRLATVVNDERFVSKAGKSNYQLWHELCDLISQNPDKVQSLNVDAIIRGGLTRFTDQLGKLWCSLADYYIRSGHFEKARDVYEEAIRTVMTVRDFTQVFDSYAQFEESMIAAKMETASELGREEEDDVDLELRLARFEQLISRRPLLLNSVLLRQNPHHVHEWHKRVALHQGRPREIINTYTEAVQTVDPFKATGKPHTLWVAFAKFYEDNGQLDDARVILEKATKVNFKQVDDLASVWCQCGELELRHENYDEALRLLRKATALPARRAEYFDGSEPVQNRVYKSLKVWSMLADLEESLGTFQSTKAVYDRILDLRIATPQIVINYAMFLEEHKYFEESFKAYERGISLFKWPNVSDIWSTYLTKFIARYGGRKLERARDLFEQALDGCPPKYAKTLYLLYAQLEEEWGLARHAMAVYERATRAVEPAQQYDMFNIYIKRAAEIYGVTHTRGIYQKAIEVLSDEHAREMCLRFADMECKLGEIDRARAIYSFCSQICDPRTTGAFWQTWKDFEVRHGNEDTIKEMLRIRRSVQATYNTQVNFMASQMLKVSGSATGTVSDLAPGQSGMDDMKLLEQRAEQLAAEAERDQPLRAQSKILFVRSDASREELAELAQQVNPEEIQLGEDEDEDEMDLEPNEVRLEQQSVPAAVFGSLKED
UniProt O43379: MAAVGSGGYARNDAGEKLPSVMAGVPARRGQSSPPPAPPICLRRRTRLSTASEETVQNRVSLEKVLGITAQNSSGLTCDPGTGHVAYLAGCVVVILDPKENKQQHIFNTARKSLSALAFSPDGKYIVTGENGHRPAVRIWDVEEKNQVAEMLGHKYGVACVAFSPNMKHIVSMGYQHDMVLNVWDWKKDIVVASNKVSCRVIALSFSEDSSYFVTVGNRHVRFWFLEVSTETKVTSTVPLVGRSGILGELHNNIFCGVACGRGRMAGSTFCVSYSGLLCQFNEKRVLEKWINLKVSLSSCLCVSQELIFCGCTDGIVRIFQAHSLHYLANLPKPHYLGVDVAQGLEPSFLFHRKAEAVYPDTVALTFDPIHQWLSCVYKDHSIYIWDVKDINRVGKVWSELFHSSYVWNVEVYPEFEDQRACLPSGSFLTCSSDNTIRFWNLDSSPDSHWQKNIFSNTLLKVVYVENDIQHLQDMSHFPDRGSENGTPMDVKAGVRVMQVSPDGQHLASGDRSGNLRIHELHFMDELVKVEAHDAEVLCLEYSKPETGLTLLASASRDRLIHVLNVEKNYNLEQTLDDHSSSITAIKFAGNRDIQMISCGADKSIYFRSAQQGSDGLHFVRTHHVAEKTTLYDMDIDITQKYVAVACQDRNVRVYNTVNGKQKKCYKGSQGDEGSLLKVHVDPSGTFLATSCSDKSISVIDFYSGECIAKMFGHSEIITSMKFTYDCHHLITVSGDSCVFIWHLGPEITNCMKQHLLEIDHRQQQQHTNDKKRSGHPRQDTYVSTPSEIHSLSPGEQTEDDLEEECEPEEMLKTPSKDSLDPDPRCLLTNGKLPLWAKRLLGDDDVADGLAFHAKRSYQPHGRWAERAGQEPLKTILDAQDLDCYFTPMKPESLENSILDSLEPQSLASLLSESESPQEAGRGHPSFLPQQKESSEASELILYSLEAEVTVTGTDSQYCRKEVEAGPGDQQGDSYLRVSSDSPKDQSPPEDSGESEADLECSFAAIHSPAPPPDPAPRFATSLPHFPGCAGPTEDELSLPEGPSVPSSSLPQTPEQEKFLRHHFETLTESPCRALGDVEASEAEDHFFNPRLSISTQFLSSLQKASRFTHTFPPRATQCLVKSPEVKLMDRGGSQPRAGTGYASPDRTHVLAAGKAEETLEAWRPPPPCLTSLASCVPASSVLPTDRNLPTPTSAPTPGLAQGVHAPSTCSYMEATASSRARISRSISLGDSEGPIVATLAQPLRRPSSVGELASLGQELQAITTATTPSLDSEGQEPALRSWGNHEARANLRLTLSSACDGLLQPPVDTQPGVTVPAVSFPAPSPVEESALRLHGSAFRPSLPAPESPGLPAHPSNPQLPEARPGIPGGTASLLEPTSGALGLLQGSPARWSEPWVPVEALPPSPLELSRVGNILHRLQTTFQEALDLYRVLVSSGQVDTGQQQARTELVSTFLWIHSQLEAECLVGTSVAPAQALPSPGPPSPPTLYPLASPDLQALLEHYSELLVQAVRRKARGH
UniProt Q9Y4E1, whole entry, looked up: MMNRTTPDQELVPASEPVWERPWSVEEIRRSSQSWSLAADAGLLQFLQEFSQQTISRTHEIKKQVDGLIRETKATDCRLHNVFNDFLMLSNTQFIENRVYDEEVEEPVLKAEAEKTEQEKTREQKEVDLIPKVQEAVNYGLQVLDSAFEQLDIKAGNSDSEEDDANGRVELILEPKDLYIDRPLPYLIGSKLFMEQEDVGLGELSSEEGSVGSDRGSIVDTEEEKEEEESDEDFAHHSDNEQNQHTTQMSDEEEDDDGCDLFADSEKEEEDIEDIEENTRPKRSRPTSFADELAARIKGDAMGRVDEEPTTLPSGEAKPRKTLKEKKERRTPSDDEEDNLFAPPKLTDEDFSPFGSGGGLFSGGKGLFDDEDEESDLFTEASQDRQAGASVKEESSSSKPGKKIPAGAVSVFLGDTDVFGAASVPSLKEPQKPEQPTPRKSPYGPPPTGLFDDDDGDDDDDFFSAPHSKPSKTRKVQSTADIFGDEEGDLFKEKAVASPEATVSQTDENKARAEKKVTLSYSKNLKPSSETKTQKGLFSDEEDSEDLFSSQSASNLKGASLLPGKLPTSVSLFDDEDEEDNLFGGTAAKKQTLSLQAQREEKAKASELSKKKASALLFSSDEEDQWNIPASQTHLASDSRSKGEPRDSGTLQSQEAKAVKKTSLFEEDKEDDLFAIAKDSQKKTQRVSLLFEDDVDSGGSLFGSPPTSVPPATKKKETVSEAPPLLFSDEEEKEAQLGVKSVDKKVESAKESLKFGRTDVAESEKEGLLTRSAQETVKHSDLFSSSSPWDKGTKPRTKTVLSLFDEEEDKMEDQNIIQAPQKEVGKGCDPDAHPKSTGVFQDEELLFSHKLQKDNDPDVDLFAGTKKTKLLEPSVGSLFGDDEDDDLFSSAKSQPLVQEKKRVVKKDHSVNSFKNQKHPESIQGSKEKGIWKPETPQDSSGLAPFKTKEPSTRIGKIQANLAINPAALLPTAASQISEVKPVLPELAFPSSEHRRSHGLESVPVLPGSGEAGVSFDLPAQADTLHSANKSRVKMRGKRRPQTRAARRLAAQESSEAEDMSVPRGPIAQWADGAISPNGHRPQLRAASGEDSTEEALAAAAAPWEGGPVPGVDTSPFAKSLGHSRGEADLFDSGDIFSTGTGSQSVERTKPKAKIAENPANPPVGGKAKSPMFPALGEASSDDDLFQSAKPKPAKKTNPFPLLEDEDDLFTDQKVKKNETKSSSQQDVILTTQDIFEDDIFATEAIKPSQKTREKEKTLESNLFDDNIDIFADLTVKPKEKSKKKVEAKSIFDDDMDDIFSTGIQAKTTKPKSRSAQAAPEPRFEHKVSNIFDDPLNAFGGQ
UniProt Q9P2S5: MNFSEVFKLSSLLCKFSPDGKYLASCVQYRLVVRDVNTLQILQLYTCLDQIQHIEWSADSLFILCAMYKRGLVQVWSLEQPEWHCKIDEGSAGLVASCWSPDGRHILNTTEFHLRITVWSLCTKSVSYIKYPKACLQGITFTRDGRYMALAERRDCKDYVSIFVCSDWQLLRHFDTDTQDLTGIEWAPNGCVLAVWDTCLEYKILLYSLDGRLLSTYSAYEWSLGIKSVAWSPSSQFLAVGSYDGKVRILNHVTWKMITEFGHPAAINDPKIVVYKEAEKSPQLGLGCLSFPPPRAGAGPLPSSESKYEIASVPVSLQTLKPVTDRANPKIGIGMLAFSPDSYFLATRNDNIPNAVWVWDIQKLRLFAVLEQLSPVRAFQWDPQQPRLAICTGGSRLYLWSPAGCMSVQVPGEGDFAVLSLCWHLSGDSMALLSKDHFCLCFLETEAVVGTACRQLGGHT
UniProt Q9Y2W2: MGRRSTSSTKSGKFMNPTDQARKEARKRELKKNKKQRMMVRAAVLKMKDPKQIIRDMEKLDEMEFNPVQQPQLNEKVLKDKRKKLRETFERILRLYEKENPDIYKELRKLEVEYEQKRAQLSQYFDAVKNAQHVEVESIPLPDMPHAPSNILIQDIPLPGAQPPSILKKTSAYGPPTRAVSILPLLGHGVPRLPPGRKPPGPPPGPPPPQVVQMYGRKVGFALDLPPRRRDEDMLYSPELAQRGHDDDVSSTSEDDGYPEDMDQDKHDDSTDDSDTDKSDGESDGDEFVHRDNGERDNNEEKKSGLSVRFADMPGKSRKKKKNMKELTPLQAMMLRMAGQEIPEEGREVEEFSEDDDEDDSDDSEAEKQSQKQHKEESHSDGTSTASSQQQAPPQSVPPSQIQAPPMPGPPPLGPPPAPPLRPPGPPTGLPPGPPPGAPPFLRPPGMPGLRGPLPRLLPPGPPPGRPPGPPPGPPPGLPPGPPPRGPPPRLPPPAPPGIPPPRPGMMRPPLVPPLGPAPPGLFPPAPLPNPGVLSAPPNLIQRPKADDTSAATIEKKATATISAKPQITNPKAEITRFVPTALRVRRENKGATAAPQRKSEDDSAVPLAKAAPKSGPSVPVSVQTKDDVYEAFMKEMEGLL

[1] = compound: Cc1nc(Nc2n[nH]c3c2CN(C(=O)N[C@H](CN(C)C)c2ccccc2)C3(C)C)c2sccc2n1
Procedure, shortened: as §1

dasatinib = compound: Cc1nc(Nc2ncc(C(=O)Nc3c(C)cccc3Cl)s2)cc(N2CCN(CCO)CC2)n1 [dasatinib]
Procedure, shortened: as §1

[2] = compound: Cc1ncc(-c2ccnc(Nc3ccc(S(C)(=O)=O)cc3)n2)n1C(C)C
Procedure, shortened: as §1

[3] = compound: Cn1cc(-c2ccc3c(c2)CCN3C(=O)Cc2cccc(C(F)(F)F)c2)c2c(N)ncnc21
Procedure, shortened: as §1

quisinostat = compound: Cn1cc(CNCC2CCN(c3ncc(C(=O)NO)cn3)CC2)c2ccccc21 [quisinostat]
Procedure, shortened: as §1

tipifarnib = compound: Cn1cncc1[C@@](N)(c1ccc(Cl)cc1)c1ccc2c(c1)c(-c1cccc(Cl)c1)cc(=O)n2C [tipifarnib]
Procedure, shortened: as §1

[4] = compound: NC(=O)Nc1cc(-c2cccc(F)c2)sc1C(=O)N[C@H]1CCCNC1
Procedure, shortened: as §1

[5] = compound: NC(=O)c1cnc(N[C@@H]2CCCC[C@@H]2N)nc1Nc1cccc(-n2nccn2)c1
Procedure, shortened: as §1

[6] = compound: NC1(c2ccc(-c3nc4ccn5c(=O)[nH]nc5c4cc3-c3ccccc3)cc2)CCC1
Procedure, shortened: as §1

[7] = compound: NCC(=O)Nc1ccc(-n2nc(C(F)(F)F)cc2-c2ccc3c(ccc4ccccc43)c2)cc1
Procedure, shortened: as §1

vorinostat = compound: O=C(CCCCCCC(=O)Nc1ccccc1)NO [vorinostat]
Procedure, shortened: as §1

silmitasertib = compound: O=C(O)c1ccc2c(c1)nc(Nc1cccc(Cl)c1)c1ccncc12 [silmitasertib]
Procedure, shortened: as §1

[8] = compound: O=C1NC(=O)C(c2cnc3ccccn23)=C1c1cn2c3c(cc(F)cc13)CN(C(=O)N1CCCCC1)CC2
Procedure, shortened: as §1

entospletinib = compound: c1cn2cc(-c3ccc4cn[nH]c4c3)nc(Nc3ccc(N4CCOCC4)cc3)c2n1 [entospletinib]
Procedure, shortened: as §1

Measured: log2 fold change

VPS16 (UniProt Q9H269)
active: vorinostat -0.543
inactive: nilotinib 0 | [1] 0.011 | dasatinib -0.013 | [2] 0.014 | [3] 0.021 | quisinostat -0.095 | tipifarnib -0.012 | [4] 0.022 | [5] 0.004 | [6] 0.009 | [7] -0.047 | silmitasertib 0.076 | [8] -0.01 | entospletinib 0.03

WDR4 (UniProt P57081)
inactive: nilotinib 0 | [1] -0.008 | dasatinib -0.002 | [2] 0 | [3] 0.012 | quisinostat -0.084 | tipifarnib 0.02 | [4] 0.018 | [5] -0.051 | [6] 0.011 | [7] -0.033 | vorinostat -0.136 | silmitasertib 0.005 | [8] -0.019 | entospletinib -0.011

VMP1 (UniProt Q96GC9)
inactive: nilotinib 0.001 | [1] 0.033 | dasatinib 0.009 | [2] -0.02 | [3] 0.002 | quisinostat -0.044 | tipifarnib -0.001 | [4] 0.114 | [5] -0.06 | [6] -0.08 | [7] -0.017 | vorinostat 0.022 | silmitasertib -0.023 | [8] -0.018 | entospletinib 0.007

WARS2 (UniProt Q9UGM6)
inactive: nilotinib 0.008 | [1] 0.032 | dasatinib -0.029 | [2] -0.016 | [3] 0.05 | quisinostat -0.012 | tipifarnib -0.008 | [4] 0.037 | [5] -0.013 | [6] -0.004 | [7] -0.017 | vorinostat 0.079 | silmitasertib -0.01 | [8] 0.011 | entospletinib 0.023

Fetched one by one from the list above, 2 records:
VPS16 (UniProt Q9H269)
active: vorinostat -0.543
inactive: nilotinib 0 | [1] 0.011 | dasatinib -0.013 | [2] 0.014 | [3] 0.021 | quisinostat -0.095 | tipifarnib -0.012 | [4] 0.022 | [5] 0.004 | [6] 0.009 | [7] -0.047 | silmitasertib 0.076 | [8] -0.01 | entospletinib 0.03

VMP1 (UniProt Q96GC9)
inactive: nilotinib 0.001 | [1] 0.033 | dasatinib 0.009 | [2] -0.02 | [3] 0.002 | quisinostat -0.044 | tipifarnib -0.001 | [4] 0.114 | [5] -0.06 | [6] -0.08 | [7] -0.017 | vorinostat 0.022 | silmitasertib -0.023 | [8] -0.018 | entospletinib 0.007

(next part)

WASH2P (UniProt Q6VEQ5)
inactive: nilotinib 0.062 | [1] -0.015 | dasatinib 0.012 | [2] 0.037 | [3] 0.045 | quisinostat 0.013 | tipifarnib -0.042 | [4] -0.005 | [5] 0.037 | [6] -0.001 | [7] -0.035 | vorinostat 0.067 | silmitasertib 0.027 | [8] -0.014 | entospletinib 0.014

XAB2 (UniProt Q9HCS7)
inactive: nilotinib 0.032 | [1] -0.002 | dasatinib -0.051 | [2] 0.048 | [3] 0.017 | quisinostat 0.106 | tipifarnib -0.046 | [4] 0.046 | [5] -0.025 | [6] -0.01 | [7] -0.012 | silmitasertib 0.005 | [8] -0.023 | entospletinib -0.006
active: vorinostat -0.259

VPS35L (UniProt Q7Z3J2)
active: vorinostat -0.266
inactive: nilotinib -0.019 | [1] -0.006 | dasatinib -0.088 | [2] 0.022 | [3] 0.008 | quisinostat -0.046 | tipifarnib 0.03 | [4] 0.043 | [5] 0.001 | [6] -0.044 | [7] 0.019 | silmitasertib 0.027 | [8] -0.006 | entospletinib 0.015

WDR92 (UniProt Q96MX6)
inactive: nilotinib 0 | [1] -0.009 | dasatinib 0.007 | [2] -0.07 | [3] -0.056 | quisinostat -0.015 | tipifarnib -0.008 | [4] 0.032 | [5] -0.042 | [6] -0.01 | [7] -0.046 | vorinostat -0.065 | silmitasertib 0.053 | [8] -0.036 | entospletinib 0.004

WDR62 isoform 4 (UniProt O43379)
active: vorinostat -0.423
inactive: nilotinib -0.001 | [1] 0.003 | dasatinib -0.026 | [2] 0 | [3] 0.022 | quisinostat -0.103 | tipifarnib -0.051 | [4] 0.031 | [5] -0.02 | [6] -0.031 | [7] 0.045 | silmitasertib 0.01 | [8] -0.014 | entospletinib -0.016

WDR44 (UniProt Q5JSH3)
inactive: nilotinib -0.01 | [1] -0.012 | dasatinib 0.012 | [2] 0.001 | [3] -0.017 | quisinostat -0.031 | tipifarnib 0.009 | [4] -0.01 | [5] -0.011 | [6] -0.035 | [7] 0.006 | vorinostat 0.104 | silmitasertib -0.035 | [8] -0.021 | entospletinib 0.003

WDFY1 (UniProt Q8IWB7)
inactive: nilotinib 0.017 | [1] 0.016 | dasatinib 0.042 | [2] -0.012 | [3] -0.052 | quisinostat 0 | tipifarnib -0.026 | [4] -0.021 | [5] 0.046 | [6] -0.026 | [7] -0.008 | vorinostat 0.007 | silmitasertib -0.009 | [8] -0.008 | entospletinib 0.004

VPS8 (UniProt Q8N3P4)
inactive: nilotinib 0.024 | [1] -0.019 | dasatinib -0.036 | [2] 0.026 | [3] 0.073 | quisinostat -0.03 | tipifarnib 0.006 | [4] 0.065 | [5] 0.027 | [6] -0.062 | [7] 0.03 | vorinostat -0.223 | silmitasertib 0.033 | [8] -0.02 | entospletinib -0.005

WASHC2C (UniProt Q9Y4E1)
inactive: nilotinib -0.039 | [1] -0.044 | dasatinib -0.009 | [2] 0.142 | [3] -0.045 | quisinostat -0.068 | tipifarnib 0.049 | [4] 0.063 | [5] -0.033 | [6] 0.01 | [7] 0.011 | vorinostat 0.139 | silmitasertib 0.009 | [8] -0.014 | entospletinib -0.053

VPS39 (UniProt Q96JC1)
inactive: nilotinib 0.03 | [1] -0.008 | dasatinib -0.044 | [2] 0.024 | [3] -0.003 | quisinostat -0.046 | tipifarnib 0.002 | [4] 0.005 | [5] -0.008 | [6] -0.003 | [7] 0.009 | vorinostat -0.194 | silmitasertib 0.01 | [8] -0.005 | entospletinib 0.013

WRAP73 (UniProt Q9P2S5)
inactive: nilotinib 0.017 | [1] 0.145 | dasatinib 0.15 | [2] -0.003 | [3] 0.076 | quisinostat -0.053 | tipifarnib -0.021 | [4] 0.029 | [5] -0.019 | [6] 0.071 | [7] 0.006 | vorinostat 0.019 | silmitasertib 0.072 | [8] 0.012 | entospletinib 0.049

WBP11 (UniProt Q9Y2W2)
inactive: nilotinib -0.008 | [1] -0.012 | dasatinib 0.048 | [2] 0.024 | [3] 0.002 | quisinostat -0.019 | tipifarnib -0.008 | [4] 0.012 | [5] -0.014 | [6] 0.005 | [7] -0.015 | vorinostat 0.143 | silmitasertib -0.037 | [8] -0.012 | entospletinib -0.012

VPS37B (UniProt Q9H9H4)
inactive: nilotinib 0.025 | [1] -0.078 | dasatinib -0.024 | [2] 0.046 | [3] -0.01 | quisinostat -0.05 | tipifarnib -0.002 | [4] -0.024 | [5] -0.005 | [6] 0 | [7] 0.029 | silmitasertib 0.045 | [8] -0.035 | entospletinib -0.058
active: vorinostat -0.349

WDR91 (UniProt A4D1P6)
active: vorinostat -0.227
inactive: nilotinib -0.051 | [1] -0.025 | dasatinib -0.039 | [2] -0.01 | [3] 0.056 | quisinostat 0.005 | tipifarnib 0.014 | [4] -0.009 | [5] -0.004 | [6] 0.011 | [7] -0.045 | silmitasertib 0.042 | [8] -0.004 | entospletinib -0.029

WASHC3 (UniProt Q9Y3C0)
inactive: nilotinib 0.009 | [1] -0.051 | dasatinib -0.024 | [2] 0.043 | [3] -0.001 | quisinostat 0.008 | tipifarnib -0.008 | [4] -0.031 | [5] -0.001 | [6] -0.029 | [7] 0.011 | vorinostat 0.046 | silmitasertib -0.07 | [8] -0.025 | entospletinib -0.039

— the supplement of paper PMC10849652
